Test results taken from PubChem BioAssay AID504648 (National Center for Advancing Translational Sciences (NCATS), 2011).
Screen size: about 390,000 compounds; about 610 (0.16%) were called active. The inconclusive results got no clear call from the source; some entries with a clear call stand among them for comparison. The call rests on the fitted dose curve; in most records, active means well fitted inhibition curve with a large enough effect; inconclusive means small, poorly fitted or top-dose-only effect, or effect the other way, or another doubt; inactive means no such curve, though single readings can be large or run the other way. Potencies beside an inconclusive call are fits to weak or partial responses and may not hold up.

Assay: Nrf2 qHTS screen for inhibitors: counterscreen for cytotoxicity
Conditions: A549 ARE-Fluc cells, CellTiter-Fluor viability, 18-24 h; activity change, negative = cytotoxicity: at 46 µM (top of the series)
Outline: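 A549 ARE_Fluc cells in 5% FBS OPTI-MEM were exposed to compounds in concentration-response for 18-24 h at 37 deg C. Viability was read by CellTiter-Fluor fluorescence (Ex 405/Em 525) after 30 min, before the luciferase read.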
On the % scale 0 is the no-effect control and ±100 the full control effect; potency means the concentration at half of the fitted maximal effect.

| SMILES | activity change, negative = cytotoxicity | Potency |
| --- | --- | --- |
| CN(c1ccccc1)c1ccc(/C=C(\C#N)c2nnc3n2CCCCC3)cc1[N+](=O)[O-] | inactive: -1.25% | – |
| CC1(C)S[C@@H]2[C@H](NC(=O)C(NC(=O)N3CCNC3=O)c3ccccc3)C(=O)N2[C@H]1C(=O)O (stereo partly drawn) | inactive: -5.68% | – |
| Cc1cc2c(nn1)CCc1nonc1-2 | inactive: -6.53% | – |
| CCOc1ccc(C2=CC(c3ccccc3)n3ncnc3N2)cc1 (stereo not drawn) | – | inconclusive: 25.9 µM [activator, partial curve, poor fit] |
| COc1ccc(N(C)C(=O)c2oc(=O)c3ccccc3c2-c2ccc(C)cc2)c(OC)c1 | – | inconclusive: 29.1 µM [falling, single point] |
| c1ccc(Cn2c(-c3ccccc3)nc3nc4ccccc4nc32)cc1 | inactive: -10.5% | – |
| COc1cccc(CC(=O)OC(C)C(=O)NCc2ccc3c(c2)OCO3)c1 (stereo not drawn) | inactive: 1.1% | – |
| CC1=C(C(=O)Nc2cccc(F)c2)C2(CCCCC2)OC1=O | inactive: -0.286% | – |
| COc1ccc(C)cc1S(=O)(=O)Nc1cccc(-c2cn3cccnc3n2)c1 | – | inconclusive: 20.6 µM [falling, single point] |
| CC1CCCN(c2ccc([N+](=O)[O-])cc2C(=O)c2ccccc2)C1 (stereo not drawn) | – | inconclusive: 6.51 µM [falling, partial curve] |
| CC1CCc2c(sc(NC(=O)Cn3cnc([N+](=O)[O-])n3)c2C(N)=O)C1 (stereo not drawn) | – | inconclusive: 32.6 µM [activator, partial curve, poor fit] |
| CCOc1cc(C(=O)NCc2ccccc2)ccc1OCC(=O)N1CCOCC1 | inactive: 10.3% | – |
| CC1(C)C(CSc2nc3ccccc3[nH]2)C1(Cl)Cl (stereo not drawn) | – | inconclusive: 29.1 µM [falling, single point] |
| Cc1nc(S/C(=C/c2ccc(-c3cccc(Cl)c3)o2)C(=O)O)n[nH]1 | – | inconclusive: 29.1 µM [falling, single point] |
| COc1ccc(OC)c(N(C)S(=O)(=O)c2ccc3c(c2)NC(=O)CC(=O)N3)c1 | inactive: 0.888% | – |
| CC(=O)N/C(=C\c1ccccc1)C(=O)OCC(=O)NC1CCS(=O)(=O)C1 (stereo not drawn) | inactive: 0.0912% | – |
| O=C(/C=C/c1ccccc1)NC(NC(=S)Nc1cc(Cl)ccc1Cl)C(Cl)(Cl)Cl (stereo not drawn) | – | inconclusive: 4.61 µM [falling, full curve, poor fit] |
| CCCN(CCC)C(=O)CSc1nc2n[nH]c(C)c2c(=N)n1-c1ccc(OCC)cc1 | – | inconclusive: 14.6 µM [falling, partial curve, poor fit] |
| O=C(CCl)N1c2ccccc2SCC1c1ccccc1 (stereo not drawn) | – | inconclusive: 29.1 µM [falling, partial curve, poor fit] |
| N#CCc1ccc(NC(=O)c2ccc(S(=O)(=O)N3CCCC3)cc2)cc1 | inactive: 3.07% | – |
| Cc1ccccc1NC(=O)N1CCN(C(=O)c2ccco2)CC1 | – | inconclusive: 14.6 µM [activator, partial curve, poor fit] |
| CC1CCN(S(=O)(=O)c2ccc3nc(Nc4cccc(F)c4)ccc3c2)CC1 | – | inconclusive: 29.1 µM [falling, partial curve, poor fit] |

| SMILES | activity change, negative = cytotoxicity | Potency |
| --- | --- | --- |
| NC(=O)CN1C(=O)/C(=c2\sc3nc(=O)c(Cc4ccccc4)nn3c2=O)c2ccccc21 | inactive: -6.28% | – |
| O=C(COc1ccc([N+](=O)[O-])cc1)NN=C1CCCC1 | – | inconclusive: 32.6 µM [activator, partial curve, poor fit] |
| CC(C)(C)C1CCC(OCC(O)CN2CCN(Cc3ccccc3)CC2)CC1 (stereo not drawn) | – | inconclusive: 20.6 µM [falling, partial curve, poor fit] |
| C/[N+]([O-])=C\c1ccc([N+](=O)[O-])o1 | – | inconclusive: 16.4 µM [falling, single point] |
| Cc1ccc(C)c(S(=O)(=O)c2cn(Cc3ccccc3)c3cc(N4CCCC4)c(F)cc3c2=O)c1 | inactive: -20.1% | – |
| Cc1ccc2c(CC(=O)Nc3c(C(=O)c4ccc(F)cc4)oc4ccccc34)coc2c1C | inactive: 1.02% | – |
| COc1cc(/C=N/NC(=O)c2c(C)nnn2-c2nonc2N)ccc1O | inactive: 13.1% | – |
| COc1ccc2c(CNCCc3ccco3)c(C(=O)O)n(Cc3ccc(F)cc3)c2c1 | – | inconclusive: 14.6 µM [falling, partial curve, poor fit] |
| COc1ccccc1C(CCNCc1ccccc1)c1ccc(OC(C)C)cc1 (stereo not drawn) | – | inconclusive: 32.6 µM [falling, partial curve, poor fit] |
| Cc1ccc(NC(=O)CC2Nc3ccccc3NC2=O)cc1Cl (stereo not drawn) | – | inconclusive: 32.6 µM [falling, partial curve, poor fit] |
| COc1ccc(NC(=O)CN2C(=O)NC3(CCCC3)C2=O)cc1 | – | inconclusive: 18.4 µM [falling, partial curve, poor fit] |
| COc1cc(OC)c2c(-c3cccc(-c4ccc(O)cc4)c3)cc(=O)oc2c1 | – | inconclusive: 29.1 µM [falling, partial curve, poor fit] |
| O=C(Nc1cccc(Cl)c1)Nc1nnc(-c2ccncc2)s1 | – | inconclusive: 25.9 µM [falling, partial curve, poor fit] |
| CCC(=O)N1CCc2cc(S(=O)(=O)NC(Cc3ccccc3)C(=O)NCc3cccc(OC)c3)ccc21 (stereo not drawn) | inactive: 1.17% | – |
| COc1ccc(C(=O)n2c(-c3ccco3)nc3ccccc32)cc1 | – | inconclusive: 2.91 µM [falling, full curve] |
| COc1ccc(/C=C2\CCc3ccccc3C2=O)cc1Cn1nc(C)cc1C | inactive: -6.64% | – |
| CCCC(CCC(=O)Nc1cc([N+](=O)[O-])ccc1O)C(=O)O (stereo not drawn) | – | inconclusive: 16.4 µM [falling, partial curve, poor fit] |
| CC(=NNC(=O)c1ccncc1)c1ccc2ccccc2c1O | – | inconclusive: 7.31 µM [falling, partial curve, poor fit] |
| N/C(=N\OC(=O)/C=C/c1ccc(Br)cc1)c1ccccn1 | – | inconclusive: 29.1 µM [falling, single point] |
| COc1cc(OC)c(C2Oc3nc(SC)nnc3-c3ccccc3N2C(C)=O)cc1OC (stereo not drawn) | – | inconclusive: 6.51 µM [falling, partial curve, poor fit] |
| O=C(NCCc1ccccc1)c1c2c(nc3ccccc13)C(=O)N(C1CCCCC1)C2 | inactive: -19% | – |

Some of the entries so far, with bars between the fields.
SMILES | activity change, negative = cytotoxicity | Potency
COc1cc(/C=N/NC(=O)c2c(C)nnn2-c2nonc2N)ccc1O | inactive: 13.1% | –
COc1ccc2c(CNCCc3ccco3)c(C(=O)O)n(Cc3ccc(F)cc3)c2c1 | – | inconclusive: 14.6 µM [falling, partial curve, poor fit]
COc1ccccc1C(CCNCc1ccccc1)c1ccc(OC(C)C)cc1 (stereo not drawn) | – | inconclusive: 32.6 µM [falling, partial curve, poor fit]
